According to the supplement of paper PMC10735217:
Values joined by “and” are separate entries in the source; they are usually repeats but may differ in a detail not shown here. Equal values may be shown once. Where a name gives a salt, the structure may show the parent alone. Some of the results follow. This data set is noisy: repeats of one test often differ as much as different tests do.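 In a drug-repurposing library screen, luminescence reads luciferase driven by eight TEAD-binding elements, stably integrated into human kidney-derived cells. Compounds scoring over five robust Z scores above the plate mean are called hits.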

System: HEK293A TEAD-LUC reporter
Assay: TEAD-luciferase reporter activity (YAP activation), robust Z score vs plate; higher = stronger YAP/TEAD activation
Conditions: 24 h

| Compound | TEAD-luciferase reporter activity (compound concentration: 200 nM) | TEAD-luciferase reporter activity (compound concentration: 2 uM) | TEAD-luciferase reporter activity (compound concentration: 10 uM) |
| --- | --- | --- | --- |
| Cc1cc2c(N)c3c(nc2cc1F)CCCC3 | inactive: -2.06 | inactive: 2.6 | inactive: -1.27 |
| COc1ccc(C(=O)c2sc(Nc3ccccc3)nc2N)cc1OC | inactive: -0.468 | inactive: -1.71 | inactive: -1.33 |
| O=S(=O)([O-])c1cc(O)c(S(=O)(=O)[O-])cc1O [diethylamine persilate] | inactive: -0.266 | inactive: 0.512 | inactive: -1.06 |
| CCC(=O)NC[C@@H]1C[C@H]1c1cccc2c1CCO2 [Tasimelteon] | inactive: 2.9 | inactive: 1.77 | inactive: -0.915 |
| C=C1C[C@H]2C=Nc3cc(OCCCOc4cc5c(cc4OC)C(=O)N4CC(=C)C[C@H]4C=N5)c(OC)cc3C(=O)N2C1 | inactive: -0.771 | inactive: -1.29 and inactive: -1.47 | inactive: -1.1 |
| CCOC(=O)NNc1ccc(N(CC)CC(C)O)nn1 (centres undefined) [cadralazine] | inactive: 3 | inactive: -0.998 | inactive: -0.336 |
| COc1cc2c(c(OC)c1OC)-c1c(cc3c(c1OC)OCO3)C[C@H](C)[C@@](C)(O)C2 [Gomisin A] | inactive: 2.08 | inactive: -0.334 | inactive: -2.13 |
| COc1cccc2c1nc(C(F)F)n2-c1nc(-c2ccc(NS(=O)(=O)CCN(C)C)cc2)nc(N2CCOCC2)n1 | inactive: 0.645 | inactive: -1.64 | inactive: 1 |
| CC(=O)Oc1c(C)c(C)c2c(c1C)CC(CC(=O)O)O2 (centres undefined) [raxofelast] | inactive: -0.373 | inactive: 0.939 | inactive: -0.788 |
| CCCCOc1nc(N)c2c(n1)N(Cc1cccc(CN3CCCC3)c1)CC(=O)N2 [Vesatolimod] | inactive: -0.139 | inactive: 0.074 | inactive: 0.171 |
| O=C(OCc1ccccc1)c1cccnc1 | inactive: -0.00818 | inactive: -0.169 | inactive: 0.341 |
| CCCCCCCN(Cc1ccc(CCC(C)C)cc1)C(=O)Nc1c(C)cc(Cl)cc1C | inactive: -0.765 | inactive: -0.344 | inactive: 0.503 |
| C=CCc1c(OC(=O)N2CCC(N3CCCCC3)CC2)ccc2nc3c(cc12)Cn1c-3cc2c(c1=O)COC(=O)[C@]2(O)CC [Simmitecan hydrochloride] | inactive: 0.594 | inactive: 1.27 | inactive: 0.881 |
| NC(=O)NO | inactive: -0.367 | – | inactive: -0.232 |
| NC(=O)NO [Hydroxyurea] | – | inactive: 0.363 | – |
| Nc1nc(O)c(Br)c(-c2ccccc2)n1 [bropirimine] | inactive: -1.47 | inactive: 0.321 | inactive: -0.389 |
| C=CC(=O)N1CCC[C@H](n2c(=O)n(-c3ccc(Oc4ccccc4)cc3)c3c(N)ncnc32)C1 [analog of ONO-4059] | – | inactive: -1.34 | – |
| C=CC(=O)N1CCC[C@H](n2c(=O)n(-c3ccc(Oc4ccccc4)cc3)c3c(N)ncnc32)C1 | inactive: -0.0963 | – | inactive: 0.862 |
| Cc1cccc(C)c1NC(=O)C1CCCCN1C (centres undefined) [mepivacaine, Biochronomer] | – | inactive: -1.36 | – |
| Cc1cccc(C)c1NC(=O)C1CCCCN1C (centres undefined) | inactive: -1.07 | – | inactive: -0.82 |
| CC(C)(CCCOc1ccc(OCCCC(C)(C)C(=O)O)c(-c2ccccc2)c1)C(=O)O | inactive: -1.17 | inactive: -0.5 | inactive: -1.46 |
| O=C(O)c1ccccc1SCCCN1C(=O)c2cccc3cccc(c23)C1=O | inactive: 0.918 | inactive: -1.53 | inactive: 0.237 |
| FC(F)(F)c1cccc(N2CCN(CCSc3nnc4ccccn34)CC2)c1 | inactive: -1 | inactive: 0.598 | inactive: -0.251 |
| Cc1ccc(C(=O)Nc2ccc(CN3CCN(C)CC3)c(C(F)(F)F)c2)cc1C#Cc1cnc2cccnn12 [Ponatinib] | inactive: 2.43 | inactive: -3.9 | inactive: -2.97 |
| CCCCCc1ccc(C)cc1O | inactive: -0.713 | inactive: -1.45 | inactive: -1.09 |
| COc1cccc(-c2ccc(C(=O)N3CCC(NC(=O)c4ccccc4OC)CC3)cc2)c1 | inactive: 3.92 | – | inactive: 2.03 |
| Cc1nc2cc(C(c3ccccc3)n3ccnc3)ccc2[nH]1 (centres undefined) | inactive: -1.08 | inactive: -0.649 | inactive: -1.61 |
| N[C@@H](CC(=O)N1CCn2c(nnc2C(F)(F)F)C1)Cc1cc(F)c(F)cc1F [sitagliptin phosphate] | – | inactive: 1.24 | – |
| N[C@@H](CC(=O)N1CCn2c(nnc2C(F)(F)F)C1)Cc1cc(F)c(F)cc1F [(ï¿½Â Â )-Sitagliptin (phosphate)] | inactive: -0.909 | – | inactive: 0.974 |

Shown bar-delimited: entries from further up.
Compound | TEAD-luciferase reporter activity (compound concentration: 200 nM) | TEAD-luciferase reporter activity (compound concentration: 2 uM) | TEAD-luciferase reporter activity (compound concentration: 10 uM)
COc1cccc2c1nc(C(F)F)n2-c1nc(-c2ccc(NS(=O)(=O)CCN(C)C)cc2)nc(N2CCOCC2)n1 | inactive: 0.645 | inactive: -1.64 | inactive: 1
CC(=O)Oc1c(C)c(C)c2c(c1C)CC(CC(=O)O)O2 (centres undefined) [raxofelast] | inactive: -0.373 | inactive: 0.939 | inactive: -0.788
